Reference: PubChem BioAssay AID504444 (National Center for Advancing Translational Sciences (NCATS), 2011)
Among all 360,000 compounds or so, about 7,500 (2.1%) were called active. The inconclusive results got no clear call from the source; some entries with a clear call stand among them for comparison. Calls follow the shape of the dose curve; as a rule, active = well fitted inhibition curve with a large enough effect; inconclusive = small, poorly fitted or top-dose-only effect, or effect the other way; inactive = flat fitted curve, though single readings scatter. Where the call is inconclusive, the potency comes from a doubtful curve fit.

assay: Nrf2 qHTS screen for inhibitors; conditions: A549 ARE-Fluc reporter, luciferase luminescence, 18-24 h; activity change, negative = inhibition: at 46 µM (top of the series); also: nearly all actives have a fitted effect of over 60% in size
Method in brief: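 Nrf2 function is reported as luminescence of an ARE-controlled luciferase in A549 cells. Compounds were tested at several concentrations, and a CellTiter-Fluor read on the same wells flagged cytotoxicity.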
% is scaled to controls: 0 for no effect and ±100 for the full control effect; potency is read from the fitted curve at half-maximal effect.

Row | SMILES | Potency | activity change, negative = inhibition
1 | O=C(Nc1ccccc1N1CCN(C(=O)c2ccccc2)CC1)c1cccc(Cl)c1 | inconclusive: 20.6 µM [falling, single point] | –
2 | Clc1ccc(-c2nc(C3CCCCC3)no2)cc1 | inconclusive: 16.4 µM [activator, partial curve, poor fit] | –
3 | O=C(COc1ccc(Cl)cc1Cl)NC(=O)N1CCCCC1 | inconclusive: 0.366 µM [activator, full curve, poor fit] | –
4 | COC(=O)c1c(C)nn(-c2ccc(OC(F)(F)F)cc2)c1-c1snnc1C | inconclusive: 18.4 µM [falling, partial curve] | –
5 | CCCCCCn1nnc2sc(-c3ccccc3)cc2c1=O | – | inactive: 12.6%
6 | Cc1nn(Cc2ccc(Cl)cc2Cl)c(C)c1NC(=O)CCl | – | inactive: -17.4%
7 | CCOc1ccc(-c2nc(Cn3c(=O)cc(C)c4c(C)nn(-c5ccccc5)c43)c(C)o2)cc1 | inconclusive: 23.1 µM [falling, single point] | –
8 | Cc1cc(C(=O)OCC(=O)Nc2cccc(S(=O)(=O)N(C)C)c2)c(C)o1 | inconclusive: 23.1 µM [falling, single point] | –
9 | c1ccc(Nc2cc(Nc3ccccc3)[nH]n2)cc1 | – | inactive: 1.56%
10 | COC(=O)c1sccc1NS(=O)(=O)c1ccc(F)cc1F | inconclusive: 0.184 µM [falling, full curve, poor fit] | –
11 | Cc1ccc(C(=O)c2cn(Cc3cccc(Cl)c3)c3nc(C)ccc3c2=O)cc1 | inconclusive: 13 µM [falling, partial curve] | –
12 | CCCCNC(=O)c1nn(C)c2c1CSc1ccccc1-2 | active: 20.6 µM | –
13 | Cc1cc2c(cc1S(=O)(=O)NCc1ccc(F)cc1)n(C)c(=O)c(=O)n2C | – | inactive: -27.4%
14 | C=CCn1c2ccccc2c(=O)c2cc(C#Cc3ccccn3)ccc21 | inconclusive: 29.1 µM [activator, single point] | –
15 | COc1ccc(-c2sc3ccc(OC)cc3c2-c2ccc(O)cc2)cc1 | inconclusive: 32.6 µM [falling, single point] | –
16 | O=C(CCS(=O)(=O)c1ccc(Br)cc1)Nc1cc(F)ccc1F | – | inactive: -0.849%
17 | Cc1cc(C(=O)Nc2sc3c(c2C#N)CCC3)no1 | inconclusive: 4.11 µM [activator, single point] | –
18 | CSc1ccc(CN(C)C(=O)c2cccc(S(=O)(=O)NCc3ccccc3)c2)cc1 | inconclusive: 20.6 µM [falling, single point] | –
19 | Cc1ccc(N2CCN(C(=O)NC3CCCCC3)CC2)c(C)c1 | inconclusive: 29.1 µM [falling, single point] | –
20 | CN(CCc1ccccc1)C(=O)c1cccc(NC(=O)Cc2cccc(NC(=O)C3CCCN(C(=O)c4ccccc4)C3)c2)c1 (stereo not given) | active: 25.9 µM | –

Quoted at random: two compounds from above, in no set order.
Row | SMILES | Potency | activity change, negative = inhibition
14 | C=CCn1c2ccccc2c(=O)c2cc(C#Cc3ccccn3)ccc21 | inconclusive: 29.1 µM [activator, single point] | –
3 | O=C(COc1ccc(Cl)cc1Cl)NC(=O)N1CCCCC1 | inconclusive: 0.366 µM [activator, full curve, poor fit] | –
